Experimental data as given in article PMC9767466.
Results are given in words; binding and its absence hold for the method and conditions named. In cells and extracts the contact can be indirect. Here binding means that the protein was enriched with, or labelled near, the bait; the list need not be complete. Tags and fused reporters may be left off the sequences shown.

Biological target: T1, N-terminal FLAG-tagged EROS in RAW 264.7 macrophages (UniProt Q3TYS2)
T1 sequence: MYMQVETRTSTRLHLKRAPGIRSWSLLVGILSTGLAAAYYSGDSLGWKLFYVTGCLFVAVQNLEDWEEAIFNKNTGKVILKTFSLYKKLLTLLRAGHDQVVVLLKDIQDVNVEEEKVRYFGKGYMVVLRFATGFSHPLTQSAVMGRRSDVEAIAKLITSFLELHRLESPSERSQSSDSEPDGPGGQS
Experiment: affinity purification with mass spectrometry; FLAG affinity purification from RAW 264.7 macrophages overexpressing FLAG-tagged EROS against untagged control cells, four biological replicates; elution with 3xFLAG peptide; LC-MS/MS; SAINTexpress, SP > 0.9 for high-confidence interactors

B1: ribophorin-1 (RPN1), endogenous in RAW 264.7 macrophages (protein, UniProt Q91YQ5 26-608)
chain: SSEAPPLVNEDVKRTVDLSSHLAKVTAEVVLVHPGGGSTSRASSFVLALEPELESRLAHLGVQIKGEDEEDNNLEVRETKIKGKSGRFFTVKLPVALDPGSKISVVVETVYTHVLHPYPTQITQSEKQFVVFEGNHYFYSPYPTKTQTMRVKLASRNVESYTKLGNPSRSEDVLDYGPFKDIPAYSQDTFKVHYENNSPFLTITSMTRVIEVSHWGNIAVEENVDLKHTGAVLKGPFSRYDYQRQPDSGISSIRSFKTILPAAAQDVYYRDEIGNVSTSHLLILDDSVEMEIRPRFPLFGGWKTHYIVGYNLPSYEYLYNLGDQYALKMRFVDHVFDEQVIDSLTVKIILPEGAKNIQVDSPYDISRAPDELHYTYLDTFGRPVIVAYKKNLVEQHIQDIVVHYTFNKVLMLQEPLLVVAAFYILFFTVIIYVRLDFSITKDPAAEARMKVACITEQVLTLVNKRLGLYRHFDETVNRYKQSRDISTLNSGKKSLETEHKAVTSEIAVLQSRLKTEGSDLCDRVSEMQKLDAQVKELVLKSAVEAERLVAGKLKKDTYLENEKLSSGKRQELVTKIDHILDAL
- binding: binds
